# At least one compound was matched to its structure with a doubt left.
# Key:
# [1] = test system: immune cells in lymph node; assay: long-term effect in lymph node (flow cytometry, IL-12 ELISA); format: in vivo, C57BL/6 mice; conditions: 25 μg/100 μL subcutaneous; until 15 days
# [2] = test system: dendritic cells and macrophages in lymph node; assay: immune cell activation in lymph node after subcutaneous injection (cryosection, fluorescence microscopy); format: in vivo, C57BL/6 mouse; conditions: 25 μg/100 μL subcutaneous; 1, 4 and 8 days
smiles,measurement,setting,value
CCOCc1nc2c(N)nc3ccccc3c2n1CC(C)(C)O [resiquimod],activation of immune cells in lymph node,[1],not induced
same,activation of immune cells in a lymph node,[2],not induced

# From US20220008411A1, “TOLL-LIKE RECEPTOR 7 OR 8 AGONIST-CHOLESTEROL COMPLEX AND METHOD OF PREPARING SAME” (RESEARCH & BUSINESS FOUNDATION SUNGKYUNKWAN UNIVERSITY, priority 2019, published 2022)
